15 compounds from the supplement of paper PMC12823440, “Inhibitors supercharge kinase turnover through native proteolytic circuits” (Nature, 2025) can be followed below.

By UniProt entry, the sequences of proteins in these tests, tags left out. Where a name states a change or a piece, a line headed by the entry shows the natural chain unless it says otherwise.
UniProt Q15208: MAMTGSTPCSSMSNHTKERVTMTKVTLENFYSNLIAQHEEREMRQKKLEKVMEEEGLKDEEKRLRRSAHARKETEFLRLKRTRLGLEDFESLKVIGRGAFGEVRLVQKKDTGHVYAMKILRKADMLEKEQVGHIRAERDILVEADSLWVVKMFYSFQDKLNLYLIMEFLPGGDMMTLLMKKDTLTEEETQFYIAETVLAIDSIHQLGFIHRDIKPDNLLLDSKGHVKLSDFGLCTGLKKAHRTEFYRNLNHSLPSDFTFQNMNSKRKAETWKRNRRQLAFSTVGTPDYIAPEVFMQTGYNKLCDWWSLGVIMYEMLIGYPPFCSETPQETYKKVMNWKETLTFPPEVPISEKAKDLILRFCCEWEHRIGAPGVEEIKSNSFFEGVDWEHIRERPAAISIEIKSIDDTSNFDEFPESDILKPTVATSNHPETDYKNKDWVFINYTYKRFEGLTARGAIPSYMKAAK
UniProt P42680: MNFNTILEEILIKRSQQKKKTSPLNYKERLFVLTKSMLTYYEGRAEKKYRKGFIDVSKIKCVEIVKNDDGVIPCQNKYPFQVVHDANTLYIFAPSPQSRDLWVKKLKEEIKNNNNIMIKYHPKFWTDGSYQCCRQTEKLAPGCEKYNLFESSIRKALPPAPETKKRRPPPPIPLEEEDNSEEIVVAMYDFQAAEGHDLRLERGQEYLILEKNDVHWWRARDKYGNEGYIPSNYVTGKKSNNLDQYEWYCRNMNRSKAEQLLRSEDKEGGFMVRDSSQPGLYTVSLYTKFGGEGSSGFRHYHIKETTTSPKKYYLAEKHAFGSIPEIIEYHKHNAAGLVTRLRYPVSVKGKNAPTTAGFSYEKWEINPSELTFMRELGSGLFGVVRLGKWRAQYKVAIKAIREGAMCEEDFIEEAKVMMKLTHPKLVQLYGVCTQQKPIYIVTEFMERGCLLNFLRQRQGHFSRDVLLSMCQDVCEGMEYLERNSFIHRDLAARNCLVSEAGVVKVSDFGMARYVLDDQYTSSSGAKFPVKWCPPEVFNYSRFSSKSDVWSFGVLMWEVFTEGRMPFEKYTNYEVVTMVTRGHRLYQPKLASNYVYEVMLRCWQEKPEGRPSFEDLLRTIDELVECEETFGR
UniProt P29597: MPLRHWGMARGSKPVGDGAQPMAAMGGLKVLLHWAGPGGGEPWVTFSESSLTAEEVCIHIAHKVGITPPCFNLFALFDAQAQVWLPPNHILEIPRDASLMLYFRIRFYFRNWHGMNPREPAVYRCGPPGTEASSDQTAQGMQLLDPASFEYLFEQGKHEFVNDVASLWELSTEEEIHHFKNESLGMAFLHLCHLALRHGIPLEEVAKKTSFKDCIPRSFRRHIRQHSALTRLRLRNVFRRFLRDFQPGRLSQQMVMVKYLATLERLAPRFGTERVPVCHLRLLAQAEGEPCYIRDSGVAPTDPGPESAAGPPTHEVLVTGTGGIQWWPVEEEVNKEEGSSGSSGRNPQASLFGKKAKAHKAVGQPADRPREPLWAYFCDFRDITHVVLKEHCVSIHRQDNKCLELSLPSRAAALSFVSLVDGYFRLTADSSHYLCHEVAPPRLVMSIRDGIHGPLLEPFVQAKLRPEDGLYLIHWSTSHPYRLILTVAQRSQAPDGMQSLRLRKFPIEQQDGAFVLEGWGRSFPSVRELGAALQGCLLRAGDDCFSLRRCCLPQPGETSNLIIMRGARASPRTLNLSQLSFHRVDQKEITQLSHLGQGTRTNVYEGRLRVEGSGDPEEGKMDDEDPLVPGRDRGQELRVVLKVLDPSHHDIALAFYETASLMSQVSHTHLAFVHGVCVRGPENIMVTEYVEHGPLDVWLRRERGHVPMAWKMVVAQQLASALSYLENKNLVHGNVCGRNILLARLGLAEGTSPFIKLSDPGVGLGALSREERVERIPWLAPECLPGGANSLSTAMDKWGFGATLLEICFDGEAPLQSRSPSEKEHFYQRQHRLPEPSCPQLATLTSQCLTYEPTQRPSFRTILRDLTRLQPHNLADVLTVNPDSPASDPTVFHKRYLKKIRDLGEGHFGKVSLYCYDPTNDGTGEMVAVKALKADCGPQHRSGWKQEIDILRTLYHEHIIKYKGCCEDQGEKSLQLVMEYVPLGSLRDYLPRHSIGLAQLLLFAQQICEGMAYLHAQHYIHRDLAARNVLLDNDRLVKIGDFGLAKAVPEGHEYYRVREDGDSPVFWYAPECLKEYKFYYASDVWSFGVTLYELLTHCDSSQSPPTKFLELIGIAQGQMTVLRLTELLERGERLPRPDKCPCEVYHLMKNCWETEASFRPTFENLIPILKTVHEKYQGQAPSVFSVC
UniProt Q6PHR2: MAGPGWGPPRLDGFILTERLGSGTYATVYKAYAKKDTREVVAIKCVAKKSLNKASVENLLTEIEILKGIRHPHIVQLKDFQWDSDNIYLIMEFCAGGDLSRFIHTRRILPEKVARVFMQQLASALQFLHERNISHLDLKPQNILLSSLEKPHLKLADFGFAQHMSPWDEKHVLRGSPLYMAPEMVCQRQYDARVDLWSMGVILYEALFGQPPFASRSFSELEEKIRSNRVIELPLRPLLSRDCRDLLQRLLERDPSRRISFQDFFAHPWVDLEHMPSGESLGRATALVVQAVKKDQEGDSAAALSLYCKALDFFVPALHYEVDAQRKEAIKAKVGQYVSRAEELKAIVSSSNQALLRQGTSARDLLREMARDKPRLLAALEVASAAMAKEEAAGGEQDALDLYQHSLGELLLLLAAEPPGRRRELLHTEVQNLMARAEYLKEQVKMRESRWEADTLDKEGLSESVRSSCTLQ
UniProt P07947, whole entry, looked up: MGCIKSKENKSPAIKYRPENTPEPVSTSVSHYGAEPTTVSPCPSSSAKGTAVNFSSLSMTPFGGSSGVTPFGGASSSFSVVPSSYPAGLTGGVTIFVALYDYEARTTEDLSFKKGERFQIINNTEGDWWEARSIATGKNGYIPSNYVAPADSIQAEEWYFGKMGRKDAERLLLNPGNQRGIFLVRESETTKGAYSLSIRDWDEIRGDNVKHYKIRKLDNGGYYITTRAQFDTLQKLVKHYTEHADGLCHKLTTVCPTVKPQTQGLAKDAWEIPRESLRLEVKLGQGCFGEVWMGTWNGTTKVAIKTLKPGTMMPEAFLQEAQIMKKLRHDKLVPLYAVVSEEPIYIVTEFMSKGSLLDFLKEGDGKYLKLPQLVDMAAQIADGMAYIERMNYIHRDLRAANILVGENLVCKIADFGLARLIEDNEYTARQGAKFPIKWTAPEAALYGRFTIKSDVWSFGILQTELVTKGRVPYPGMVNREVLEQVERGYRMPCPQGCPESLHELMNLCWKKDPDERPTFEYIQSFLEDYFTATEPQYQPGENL
UniProt P43403: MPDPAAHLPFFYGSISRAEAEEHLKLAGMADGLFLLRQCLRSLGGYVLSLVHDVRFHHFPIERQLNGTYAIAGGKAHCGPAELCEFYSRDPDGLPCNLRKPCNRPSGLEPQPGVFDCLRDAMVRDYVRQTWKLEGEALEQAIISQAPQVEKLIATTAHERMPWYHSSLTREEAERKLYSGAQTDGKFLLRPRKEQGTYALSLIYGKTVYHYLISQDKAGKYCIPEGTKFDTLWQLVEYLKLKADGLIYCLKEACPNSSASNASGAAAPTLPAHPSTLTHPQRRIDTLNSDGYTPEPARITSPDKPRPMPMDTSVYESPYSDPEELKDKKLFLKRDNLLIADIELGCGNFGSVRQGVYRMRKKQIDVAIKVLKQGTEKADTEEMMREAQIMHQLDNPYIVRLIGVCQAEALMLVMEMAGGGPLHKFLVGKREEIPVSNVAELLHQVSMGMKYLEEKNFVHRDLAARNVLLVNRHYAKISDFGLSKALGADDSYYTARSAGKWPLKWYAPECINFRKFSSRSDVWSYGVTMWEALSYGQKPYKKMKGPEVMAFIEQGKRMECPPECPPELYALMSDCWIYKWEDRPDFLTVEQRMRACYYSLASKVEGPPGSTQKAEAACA
UniProt P00519, whole entry: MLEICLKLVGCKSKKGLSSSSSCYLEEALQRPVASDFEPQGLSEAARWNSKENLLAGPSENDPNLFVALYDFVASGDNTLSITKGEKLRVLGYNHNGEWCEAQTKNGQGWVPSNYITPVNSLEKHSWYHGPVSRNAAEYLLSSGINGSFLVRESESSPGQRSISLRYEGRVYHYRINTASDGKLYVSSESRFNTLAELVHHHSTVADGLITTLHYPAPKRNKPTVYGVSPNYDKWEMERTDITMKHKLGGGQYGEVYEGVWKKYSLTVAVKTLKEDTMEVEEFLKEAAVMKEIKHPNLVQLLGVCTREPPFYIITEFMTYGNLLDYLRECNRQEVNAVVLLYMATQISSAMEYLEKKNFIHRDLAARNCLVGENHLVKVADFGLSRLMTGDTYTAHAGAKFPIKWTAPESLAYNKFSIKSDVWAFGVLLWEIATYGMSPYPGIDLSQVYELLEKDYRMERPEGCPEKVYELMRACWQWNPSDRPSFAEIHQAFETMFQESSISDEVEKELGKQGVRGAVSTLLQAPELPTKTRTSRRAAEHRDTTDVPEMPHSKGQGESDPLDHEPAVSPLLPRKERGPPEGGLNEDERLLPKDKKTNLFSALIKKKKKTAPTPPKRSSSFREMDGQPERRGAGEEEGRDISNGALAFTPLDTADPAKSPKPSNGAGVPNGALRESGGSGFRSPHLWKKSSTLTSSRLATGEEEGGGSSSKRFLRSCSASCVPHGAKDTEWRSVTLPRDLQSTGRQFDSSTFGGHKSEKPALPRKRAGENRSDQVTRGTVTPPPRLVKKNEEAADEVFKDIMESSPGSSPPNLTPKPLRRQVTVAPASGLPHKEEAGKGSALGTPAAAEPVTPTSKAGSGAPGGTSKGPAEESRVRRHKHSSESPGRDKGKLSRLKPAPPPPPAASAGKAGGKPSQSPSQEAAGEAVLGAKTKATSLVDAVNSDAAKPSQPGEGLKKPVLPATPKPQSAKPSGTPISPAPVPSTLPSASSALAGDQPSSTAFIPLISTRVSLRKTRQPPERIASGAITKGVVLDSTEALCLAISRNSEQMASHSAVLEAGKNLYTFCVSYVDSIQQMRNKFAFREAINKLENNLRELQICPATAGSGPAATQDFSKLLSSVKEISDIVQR
UniProt P31749: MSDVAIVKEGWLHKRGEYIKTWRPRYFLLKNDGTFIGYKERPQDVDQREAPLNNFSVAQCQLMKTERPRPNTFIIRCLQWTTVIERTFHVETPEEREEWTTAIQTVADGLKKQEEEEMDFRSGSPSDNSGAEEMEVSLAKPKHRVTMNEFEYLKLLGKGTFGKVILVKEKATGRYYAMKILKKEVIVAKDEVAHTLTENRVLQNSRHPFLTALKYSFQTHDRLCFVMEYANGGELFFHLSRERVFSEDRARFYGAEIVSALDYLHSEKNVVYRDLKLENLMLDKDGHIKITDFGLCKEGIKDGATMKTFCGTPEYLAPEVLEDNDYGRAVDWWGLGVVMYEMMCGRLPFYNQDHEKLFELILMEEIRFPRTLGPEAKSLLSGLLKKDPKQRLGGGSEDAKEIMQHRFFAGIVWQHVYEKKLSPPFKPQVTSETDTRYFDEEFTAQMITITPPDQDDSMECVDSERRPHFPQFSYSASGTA

Counter-ions that a name gives are not always drawn. Some of the results follow. The calls rarely recur for the same compound in another form.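 Kinases, fused to nanoluciferase, were expressed in K562 cells; luminescence was measured every 4 h from 2 to 18 h as percent of control (DMSO = 100%, positive control = 0%). A time point is decreased if signal falls significantly (2 sigma). Hits were called by the authors by a rule that is not shown; the count of time points alone does not decide it.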

Common to all, as to conditions: K562; 2-18 h
For one test, the target named is STK38 (UniProt Q15208). Kind of test: kinase-Nluc reporter destabilization hit call (1 = scored as downregulated) (binary); higher = compound decreases kinase abundance.
For the next test, the target named is SYK (UniProt P43405). Described as above.
The next test concerns the target TEC (UniProt P42680). Described as above.
The next test addresses TYK2 (UniProt P29597). The description is as above.
The next test addresses ULK3 (UniProt Q6PHR2). The description is as above.
The next test has as its target YES1 (UniProt P07947). The test is described as above.
Another test has as its target ZAK (UniProt Q9NYL2). Described as above.
The next test concerns the target ZAP70 (UniProt P43403). Described as above.
The next test deals with ABL1 (UniProt P00519). Kind of test: number of time points (of 5) at which kinase-Nluc abundance scored as decreased, DMSO-normalised (count); higher = more persistent destabilization.
In a further test the target is AKT1 (UniProt P31749). The description is as above.

`O=C(NCc1ccn[nH]1)c1cc([C@@H]2CCNC[C@H]2COc2ccc3c(c2)OCO3)ccc1F` [GRK2-IN-1 (hydrochloride)] (10 µM): the “kinase-Nluc reporter destabilization hit call” value in the test with STK38, with SYK, in the test with TEC, in the test with TYK2, with ULK3 and with YES1 was inactive: 0 in each case. Also, the “kinase-Nluc reporter destabilization hit call” value in the test with ZAK and in the test with ZAP70 was inactive: 0 in each case. Besides, the “number of time points” value with ABL1 and in the test with AKT1 was 0 each time.
With `COc1c(Nc2ncc(Cl)c(N[C@H]3[C@@H](C(N)=O)[C@@H]4C=C[C@H]3C4)n2)ccc2c1CC[C@@H](N1CCOCC1)CC2` (10 µM), the “kinase-Nluc reporter destabilization hit call” value in the test with STK38, with SYK, in the test with TEC, in the test with TYK2, with ULK3 and with YES1 was inactive: 0 each time. The “kinase-Nluc reporter destabilization hit call” value with ZAK and with ZAP70 was inactive: 0 throughout. Moreover, the “number of time points” value with ABL1 and with AKT1 was 0 throughout.
With `CCc1c(C(=O)NNC(=O)[C@H](O)c2cc(F)cc(F)c2)ccc(O)c1C` (10 µM), the “kinase-Nluc reporter destabilization hit call” value with STK38, with SYK, with TEC, with TYK2, in the test with ULK3 and with YES1 was inactive: 0 each time. For the same compound, the “kinase-Nluc reporter destabilization hit call” value in the test with ZAK and with ZAP70 was inactive: 0 in each case. The “number of time points” value with ABL1 and with AKT1 was 0 throughout.
`Cc1cccc(-c2nn3c(c2-c2ccnc4ccc(C(N)=O)cc24)CCC3)n1` [Galunisertib] (10 µM): the “kinase-Nluc reporter destabilization hit call” value with STK38, in the test with SYK, with TEC, in the test with TYK2, in the test with ULK3 and in the test with YES1 was inactive: 0 in each case. Besides, the “kinase-Nluc reporter destabilization hit call” value in the test with ZAK and with ZAP70 was inactive: 0 throughout. The “number of time points” value with ABL1 and with AKT1 was 0 throughout.
`CN(C)C(=O)c1cc2cnc(Nc3ccc(N4CCN(CCCCNC(=O)COc5cccc6c5C(=O)N(C5CCC(=O)NC5=O)C6=O)CC4)cn3)nc2n1C1CCCC1` (stereo not given) (10 µM): the “kinase-Nluc reporter destabilization hit call” value with STK38, in the test with SYK, in the test with TEC, with TYK2, with ULK3 and with YES1 was inactive: 0 in each case. Besides, the “kinase-Nluc reporter destabilization hit call” value with ZAK and in the test with ZAP70 was inactive: 0 throughout. For the same compound, the “number of time points” value with ABL1 and in the test with AKT1 was 0 in each case.
Turning to `CC(=O)O/N=C1/C(c2c(O)[nH]c3cc(Br)ccc23)=Nc2ccccc21` [BIO-acetoxime] (10 µM), the “kinase-Nluc reporter destabilization hit call” value with STK38, with SYK, in the test with TEC, with TYK2, with ULK3 and with YES1 was inactive: 0 throughout. Besides, the “kinase-Nluc reporter destabilization hit call” value with ZAK and with ZAP70 was inactive: 0 throughout. Further, the “number of time points” value with ABL1 and in the test with AKT1 was 0 in each case.
With `CN1CCN(Cc2ccc(-c3cnc4[nH]cc(-c5ccc6[nH]ccc6c5)c4c3)cc2)CC1` (2.5 µM), the “kinase-Nluc reporter destabilization hit call” value in the test with STK38, with SYK, with TEC, with TYK2, with ULK3 and with YES1 was inactive: 0 each time. Besides, the “kinase-Nluc reporter destabilization hit call” value in the test with ZAK and in the test with ZAP70 was inactive: 0 throughout. The “number of time points” value with ABL1 and with AKT1 was 0 each time.
For `COC(=O)N1CCN(C2CCC(Nc3nc(Nc4cnn(C)c4)nc4ccc(CC#N)nc34)CC2)CC1` (stereo not given) (10 µM), the “kinase-Nluc reporter destabilization hit call” value in the test with STK38, with SYK, with TEC, in the test with TYK2, with ULK3 and with YES1 was inactive: 0 throughout. For the same compound, the “kinase-Nluc reporter destabilization hit call” value with ZAK and in the test with ZAP70 was inactive: 0 each time. Moreover, the “number of time points” value with ABL1 and with AKT1 was 0 each time.
On to `Oc1ccc(-c2cnc3ccc(NCc4ccco4)nn23)cc1` [IRAK inhibitor 2] (2.5 µM), for which the “kinase-Nluc reporter destabilization hit call” value in the test with STK38, with SYK, with TEC, with TYK2, with ULK3 and with YES1 was inactive: 0 in each case. The “kinase-Nluc reporter destabilization hit call” value in the test with ZAK and with ZAP70 was inactive: 0 each time. Also, the “number of time points” value with ABL1 and with AKT1 was 0 each time.
As for `CO[C@@H]1[C@H](N(C)C(=O)c2ccccc2)C[C@H]2O[C@]1(C)n1c3ccccc3c3c4c(c5c6ccccc6n2c5c31)C(=O)NC4` [Midostaurin] (2.5 µM), the “kinase-Nluc reporter destabilization hit call” value in the test with STK38, with SYK, with TEC, with TYK2, with ULK3 and with YES1 was inactive: 0 in each case. The “kinase-Nluc reporter destabilization hit call” value with ZAK and with ZAP70 was inactive: 0 in each case. In addition, the “number of time points” value with ABL1 was 4; with AKT1, 0.
As to `N#Cc1cnc(Nc2cc(NC[C@H]3CNCCO3)c(C(F)(F)F)cn2)cn1` (10 µM), the “kinase-Nluc reporter destabilization hit call” value in the test with STK38, in the test with SYK, with TEC, with TYK2, with ULK3 and with YES1 was inactive: 0 in each case. The “kinase-Nluc reporter destabilization hit call” value with ZAK and with ZAP70 was inactive: 0 each time. Also, the results for the “number of time points” value with ABL1 and with AKT1 were 1 and 0, respectively.
As to `CCOc1cc(=O)[nH]cc1-c1ccc(CC(=O)Nc2cc(C(C)(C)C(F)(F)F)on2)c(F)c1` (10 µM), the “kinase-Nluc reporter destabilization hit call” value with STK38, with SYK, with TEC, in the test with TYK2, with ULK3 and with YES1 was inactive: 0 throughout. Also, the “kinase-Nluc reporter destabilization hit call” value with ZAK and in the test with ZAP70 was inactive: 0 in each case. The “number of time points” value with ABL1 and with AKT1 was 0 in each case.
As for `CN1CCN(Cc2ccc(-c3cn(C4CCC(O)CC4)c4nc(NCCC5CC5)ncc34)cc2)CC1` (stereo not given) (2.5 µM), the “kinase-Nluc reporter destabilization hit call” value with STK38, with SYK, in the test with TEC, in the test with TYK2, with ULK3 and in the test with YES1 was inactive: 0 in each case. Further, the “kinase-Nluc reporter destabilization hit call” value with ZAK and with ZAP70 was inactive: 0 each time. Further, the “number of time points” value with ABL1 and with AKT1 was 0 in each case.
As for `Cn1cc(C2=C(c3ccc(Cl)cc3Cl)C(=O)NC2=O)c2ccccc21` (10 µM), the “kinase-Nluc reporter destabilization hit call” value with STK38, in the test with SYK, in the test with TEC, in the test with TYK2, with ULK3 and in the test with YES1 was inactive: 0 throughout. Further, the “kinase-Nluc reporter destabilization hit call” value with ZAK and with ZAP70 was inactive: 0 each time. Besides, the “number of time points” value with ABL1 and with AKT1 was 0 each time.
On to `CN1CCC(Nc2ccc(C(=O)Nc3cc(-c4ccc5c(c4)OCO5)[nH]n3)cc2)CC1` (10 µM), for which the “kinase-Nluc reporter destabilization hit call” value with STK38, with SYK, with TEC, with TYK2, with ULK3 and with YES1 was inactive: 0 in each case. The “kinase-Nluc reporter destabilization hit call” value in the test with ZAK and with ZAP70 was inactive: 0 each time. Further, the “number of time points” value in the test with ABL1 is 2; with AKT1 it was 0.
